Some of the results follow.
These molecules were tested on RmlC (dTDP-4-dehydrorhamnose 3,5-epimerase) and RmlD (dTDP-4-dehydrorhamnose reductase), coupled enzyme assay (assay: RmlC and RmlD coupled enzyme inhibitors, primary screen, biochemical, 384-well, compound mixtures, retest (AID 1532)). Settings: 384-well mixture HTS, measured here: mean retest inhibition, at 5.5 µM, stronger effect = higher value.

Row | Structure (SMILES) | inhibition
1 | O=C(NCC1(N2CCOCC2)CCCCC1)c1cc(=O)[nH]c2ccccc12 | -3.49%
2 | O=C(OC1CN2CCC1CC2)C1c2ccccc2Oc2ccccc21 (configuration not stated) | -10.4%
